Taken from: PubChem BioAssay AID1159584 (Peter MacCallum Cancer Centre, 2016)
Here is an unselected part of about 18,000 reagents. Reagents against one gene are numbered here. Further read-outs or replicates are left out here. No sequences are given here. The record does not give: the amount of reagent, the time to read-out.

Aim: 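Knock-downs that harm CDH1-null cells more than parental MCF10A cells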 (primary screen)
Cell system: human MCF10A breast epithelial cells, parental and CDH1-null
Reagents: siRNA against human genes
Detection: 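ATP luminescence (CellTiter-Glo) viability per line relative to mean mock wells over all plates, and the ratio of CDH1-null to parental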
Reading the numbers: CDH1-null / parental viability ratio: higher = CDH1-null cells survive relatively better than parental; CDH1-null viability vs mock: higher = more viable CDH1-null cells

no.	target gene	reagent	CDH1-null / parental viability ratio	CDH1-null viability vs mock (fraction of mock)
1	ZNF277 (zinc finger protein 277)	1	0.87	0.73
2	ITIH1 (inter-alpha-trypsin inhibitor heavy chain 1)	1	1.15	0.55
3	CCDC25 (coiled-coil domain containing 25)	1	1.44	1.02
4	HDX (highly divergent homeobox)	1	0.96	1.02
5	TRPS1 (transcriptional repressor GATA binding 1)	1	0.95	0.73
6	ETNPPL (ethanolamine-phosphate phospho-lyase)	1	1.02	0.96
7	RHOU (ras homolog family member U)	1	1.09	1
8	TTF1 (transcription termination factor 1)	1	1.12	0.72
9	GALNT10 (polypeptide N-acetylgalactosaminyltransferase 10)	1	0.96	0.96
10	KIF12 (kinesin family member 12)	1	1	0.48
11	NR1H4 (nuclear receptor subfamily 1 group H member 4)	1	1.03	1.13
12	MAPK14 (mitogen-activated protein kinase 14)	1	0.94	0.9
13	CLPS (colipase)	1	1.45	0.71
14	ABHD5	1	1.07	0.44
15	UCHL1 (ubiquitin C-terminal hydrolase L1)	1	1.2	1.04
16	TMED5 (transmembrane p24 trafficking protein 5)	1	1.05	0.62
17	RHEX (regulator of hemoglobinization and erythroid cell expansion)	1	0.92	0.44

The list goes on (4 carried over from the part before).
no.	target gene	reagent	CDH1-null / parental viability ratio	CDH1-null viability vs mock (fraction of mock)
14	ABHD5	1	1.07	0.44
15	UCHL1 (ubiquitin C-terminal hydrolase L1)	1	1.2	1.04
16	TMED5 (transmembrane p24 trafficking protein 5)	1	1.05	0.62
17	RHEX (regulator of hemoglobinization and erythroid cell expansion)	1	0.92	0.44
18	GABARAPL1 (GABA type A receptor associated protein like 1)	1	1.13	0.8
19	TOR1AIP2 (torsin 1A interacting protein 2)	1	0.77	0.62
20	TOR1AIP2 (torsin 1A interacting protein 2)	2	0.84	0.82
21	GALNT14 (polypeptide N-acetylgalactosaminyltransferase 14)	1	1.26	1.08
22	MUC21 (mucin 21, cell surface associated)	1	1.14	0.64
23	TRIM38 (tripartite motif containing 38)	1	0.96	0.48
24	ZNF774 (zinc finger protein 774)	1	0.84	0.93
25	FAM76A (family with sequence similarity 76 member A)	1	0.94	0.94
26	RNF181 (ring finger protein 181)	1	0.83	0.85
27	DCBLD1 (discoidin, CUB and LCCL domain containing 1)	1	0.92	0.9
28	LCORL (ligand dependent nuclear receptor corepressor like)	1	0.99	0.9
29	SPANXB1 (SPANX family member B1)	1	1.26	0.86
30	SPANXB1 (SPANX family member B1)	2	1.22	1.01
31	PLA2G2D (phospholipase A2 group IID)	1	1.36	1.36
32	NHERF4 (NHERF family PDZ scaffold protein 4)	1	0.89	0.8
33	ADH7 (alcohol dehydrogenase 7 (class IV), mu or sigma polypeptide)	1	1.13	0.7
34	PTGS1 (prostaglandin-endoperoxide synthase 1)	1	0.79	0.54
35	RIMOC1 (RAB7A interacting MON1-CCZ1 complex subunit 1)	1	1.03	0.75
36	RPL19 (ribosomal protein L19)	1	1.31	0.38
37	SPRR2G (small proline rich protein 2G)	1	0.97	0.84
38	ZIC1 (Zic family zinc finger 1)	1	1.15	0.53
39	PDHA2 (pyruvate dehydrogenase E1 subunit alpha 2)	1	1.06	0.94
40	SNPH (syntaphilin)	1	1.54	1.11
41	RCC2 (regulator of chromosome condensation 2)	1	0.7	0.6
42	RD3 (RD3 regulator of GUCY2D)	1	1.06	0.7
43	DAOA (D-amino acid oxidase activator)	1	0.95	0.79
44	HNRNPH1 (heterogeneous nuclear ribonucleoprotein H1)	1	1.27	1.09
45	KIAA0753	1	0.89	0.74
46	ASCC2 (activating signal cointegrator 1 complex subunit 2)	1	1.03	0.78
